Measured values: article PMC4608839
No constants are given. Whether binding was seen depends on the method and setting. Binding seen in cells or lysates may run through a third protein. Some binding calls cover weakened binding; strength is not graded here. Tags and fused reporters may be left off the sequences shown.

By UniProt entry, the sequences of proteins in these tests, tags left out.
UniProt Q95V55: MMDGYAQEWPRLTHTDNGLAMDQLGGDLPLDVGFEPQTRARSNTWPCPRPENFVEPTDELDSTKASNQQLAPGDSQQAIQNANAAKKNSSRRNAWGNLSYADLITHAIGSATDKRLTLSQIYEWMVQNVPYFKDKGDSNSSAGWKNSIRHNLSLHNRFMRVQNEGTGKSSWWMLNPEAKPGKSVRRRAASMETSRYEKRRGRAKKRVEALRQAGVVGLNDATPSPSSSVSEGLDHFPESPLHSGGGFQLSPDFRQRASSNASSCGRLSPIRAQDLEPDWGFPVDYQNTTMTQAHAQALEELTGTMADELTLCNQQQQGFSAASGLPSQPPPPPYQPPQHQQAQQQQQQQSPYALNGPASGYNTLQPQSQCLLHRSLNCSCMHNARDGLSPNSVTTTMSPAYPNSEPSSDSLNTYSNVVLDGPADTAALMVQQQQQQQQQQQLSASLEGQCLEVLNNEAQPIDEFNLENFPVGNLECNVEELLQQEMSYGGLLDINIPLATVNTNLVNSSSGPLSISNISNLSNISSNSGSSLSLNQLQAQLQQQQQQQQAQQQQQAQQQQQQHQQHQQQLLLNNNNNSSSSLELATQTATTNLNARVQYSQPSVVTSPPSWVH

Target: T1, HA-tagged Pelle (HA-Pll) (Drosophila melanogaster) (UniProt Q05652)
T1 sequence: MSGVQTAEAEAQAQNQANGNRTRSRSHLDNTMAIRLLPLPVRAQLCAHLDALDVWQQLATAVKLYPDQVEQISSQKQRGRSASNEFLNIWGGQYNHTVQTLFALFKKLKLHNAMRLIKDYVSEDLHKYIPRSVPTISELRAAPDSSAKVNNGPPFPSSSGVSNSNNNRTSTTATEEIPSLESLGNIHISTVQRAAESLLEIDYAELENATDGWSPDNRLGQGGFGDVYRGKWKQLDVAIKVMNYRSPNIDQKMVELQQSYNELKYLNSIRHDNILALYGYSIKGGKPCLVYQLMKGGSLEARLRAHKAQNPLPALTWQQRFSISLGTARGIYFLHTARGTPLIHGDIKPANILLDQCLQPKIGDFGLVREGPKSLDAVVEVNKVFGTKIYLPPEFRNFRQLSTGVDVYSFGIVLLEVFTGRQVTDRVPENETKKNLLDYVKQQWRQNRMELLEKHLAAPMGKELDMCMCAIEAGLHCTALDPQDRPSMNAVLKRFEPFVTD
Experiment: co-IP; HA-Pll and Flag-dFoxO co-transfected with Actin-GAL4 in Drosophila S2R+ cells; lysed in RIPA buffer with PMSF 48 hours after transfection; which protein was precipitated is not told

binding: binds
Substance: Flag-tagged dFoxO (Flag-dFoxO) (from UniProt Q95V55 1-613)
